Experimental data: PMC6180136
These are yes or no findings as the source states them, for the method shown. In cells and extracts the contact can be indirect. Some entries that bind do so weakly or less than the wild type.

Molecular target: FLAG-MSK1 (mitogen- and stress-activated kinase 1) (UniProt O75582)
Experiment: co-IP; HEK293T cells transfected with FLAG-MSK1 and HA-p53; lysates (20 mM Tris-Cl pH 7.5, 300 mM KCl, 0.2 mM EDTA, 0.1% NP-40, 20% glycerol) incubated with M2 agarose; immunoblot

With HA-p53 (from UniProt P04637 1-393) the binding was “binds”.
